No end group written: not given here.
test: Non-enzymatic glycation of insulin and IR peptides followed by MALDI-TOF mass spectrometry; type: physicochemical; conditions: 20 mM glucose in DMEM, six days, 36–38 °C, peptide 0.1 mg/mL, signal height relative to unglycated peptide peak, average of three experiments

By UniProt entry, the sequences of proteins in these tests, tags left out. Where a name states a change or a piece, a line headed by the entry shows the natural chain unless it says otherwise.
UniProt P06213: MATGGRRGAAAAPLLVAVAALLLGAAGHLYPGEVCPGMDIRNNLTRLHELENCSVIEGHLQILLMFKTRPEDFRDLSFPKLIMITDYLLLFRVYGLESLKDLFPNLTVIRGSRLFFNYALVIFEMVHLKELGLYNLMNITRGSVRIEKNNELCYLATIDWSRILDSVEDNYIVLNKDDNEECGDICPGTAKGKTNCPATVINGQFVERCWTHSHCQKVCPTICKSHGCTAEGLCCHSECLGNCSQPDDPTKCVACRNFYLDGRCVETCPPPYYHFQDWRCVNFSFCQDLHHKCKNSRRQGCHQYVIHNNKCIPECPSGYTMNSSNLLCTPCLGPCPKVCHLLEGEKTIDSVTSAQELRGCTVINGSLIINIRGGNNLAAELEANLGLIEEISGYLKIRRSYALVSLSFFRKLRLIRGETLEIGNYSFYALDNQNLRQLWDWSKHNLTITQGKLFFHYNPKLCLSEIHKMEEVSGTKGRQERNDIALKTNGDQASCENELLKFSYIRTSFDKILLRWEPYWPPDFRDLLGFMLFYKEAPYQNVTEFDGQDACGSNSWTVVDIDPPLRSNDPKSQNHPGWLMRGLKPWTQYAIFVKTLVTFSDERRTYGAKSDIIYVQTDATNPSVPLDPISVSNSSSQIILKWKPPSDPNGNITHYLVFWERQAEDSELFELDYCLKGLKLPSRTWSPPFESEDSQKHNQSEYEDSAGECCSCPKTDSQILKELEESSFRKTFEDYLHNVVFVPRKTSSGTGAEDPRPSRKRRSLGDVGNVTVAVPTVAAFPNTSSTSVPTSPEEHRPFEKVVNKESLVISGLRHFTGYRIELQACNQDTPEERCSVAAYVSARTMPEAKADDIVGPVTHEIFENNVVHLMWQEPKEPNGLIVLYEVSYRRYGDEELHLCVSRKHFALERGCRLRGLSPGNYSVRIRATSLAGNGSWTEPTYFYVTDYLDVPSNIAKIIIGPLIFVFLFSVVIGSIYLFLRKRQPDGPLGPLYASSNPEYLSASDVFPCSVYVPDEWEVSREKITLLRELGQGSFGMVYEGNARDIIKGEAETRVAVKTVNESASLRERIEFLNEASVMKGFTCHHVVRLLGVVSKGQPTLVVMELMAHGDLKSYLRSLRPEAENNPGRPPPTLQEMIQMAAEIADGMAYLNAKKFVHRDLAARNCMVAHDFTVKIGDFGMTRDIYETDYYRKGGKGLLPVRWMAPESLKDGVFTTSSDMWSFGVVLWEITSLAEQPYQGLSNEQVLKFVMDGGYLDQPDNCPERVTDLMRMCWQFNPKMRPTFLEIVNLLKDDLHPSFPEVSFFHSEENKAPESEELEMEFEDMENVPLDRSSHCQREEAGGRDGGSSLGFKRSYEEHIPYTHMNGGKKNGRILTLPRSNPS

Point of comparison: H-TIDWSRILDS [157-166], “% Glycation 6 Day 20 mM, primary site” value 4%. Against it:
- ENCSVIEGHLQ [51-61, synthetic insulin receptor peptide, residues 51-61 of human IR, insulin-like] — higher, 6%
- GMDIRNNLTRLHELE [37-51, synthetic insulin receptor peptide, residues 37-51 of human IR (UniProt P06213)] — higher, 11%
- H-FRVYGLESLKDLF [91-103] — higher, 13%
- H-NLTVIRGSRLFFNY [105-118] — lower, 2.4%
- H-TQGKLFFHYNPK [453-464] — higher, 9%
- Insulin: recombinant human insulin (Lilly for glycation; Sigma-Aldrich for IR binding) — higher, 24%
- KTFEDYLHNVVFV [730-742, synthetic insulin receptor peptide, residues 730-742 of human IR] — higher, 11%

Point of comparison: H-FRVYGLESLKDLF [91-103], “% Glycation 6 Day 20 mM, secondary site” value 4%. Against it:
- ENCSVIEGHLQ [51-61, synthetic insulin receptor peptide, residues 51-61 of human IR, insulin-like] — lower, 0%
- GMDIRNNLTRLHELE [37-51, synthetic insulin receptor peptide, residues 37-51 of human IR (UniProt P06213)] — lower, 0%
- H-NLTVIRGSRLFFNY [105-118] — lower, 0%
- H-TIDWSRILDS [157-166] — lower, 2%
- H-TQGKLFFHYNPK [453-464] — lower, 0%
- Insulin: recombinant human insulin (Lilly for glycation; Sigma-Aldrich for IR binding) — higher, 6%
- KTFEDYLHNVVFV [730-742, synthetic insulin receptor peptide, residues 730-742 of human IR] — lower, 0%

In the case of “ESEDSQKHNQSEYEDS [689-705, synthetic insulin receptor peptide, residues 689-705 of human IR]”, the “% Glycation 6 Day 20 mM, primary site” value is reported as 0/0%.
For “HLYFGEVCPGMDIRNN [28-43, synthetic insulin receptor peptide, residues 28-43 of human IR (UniProt P06213)]”, the “% Glycation 6 Day 20 mM, primary site” value was 0/0%.

In the case of “ESEDSQKHNQSEYEDS [689-705, synthetic insulin receptor peptide, residues 689-705 of human IR]”, the “% Glycation 6 Day 20 mM, secondary site” value is reported as 0/0%.
With “HLYFGEVCPGMDIRNN [28-43, synthetic insulin receptor peptide, residues 28-43 of human IR (UniProt P06213)]” the “% Glycation 6 Day 20 mM, secondary site” value was 0/0%.

same assay, conditions: highest glucose concentrations

In the case of “Insulin: recombinant human insulin (Lilly for glycation; Sigma-Aldrich for IR binding)”, the “Degree of glycation at the highest glucose concentrations” value is reported as “tri-glycated”.
